Source: doi:10.1101/830620
These are yes or no findings as the source states them, for the method shown. For some of these results: Binding calls can cover weak binding; strength is not graded here. For some of these results: In cells and extracts the contact can be indirect. For some of these results: Sequences can lack the tags named with a protein.

What was measured:
GST-GSK2 (rice) = biological target: T1, GST-GSK2 (rice) (UniProt Q60EZ2); experiment: pull-down
T1 sequence: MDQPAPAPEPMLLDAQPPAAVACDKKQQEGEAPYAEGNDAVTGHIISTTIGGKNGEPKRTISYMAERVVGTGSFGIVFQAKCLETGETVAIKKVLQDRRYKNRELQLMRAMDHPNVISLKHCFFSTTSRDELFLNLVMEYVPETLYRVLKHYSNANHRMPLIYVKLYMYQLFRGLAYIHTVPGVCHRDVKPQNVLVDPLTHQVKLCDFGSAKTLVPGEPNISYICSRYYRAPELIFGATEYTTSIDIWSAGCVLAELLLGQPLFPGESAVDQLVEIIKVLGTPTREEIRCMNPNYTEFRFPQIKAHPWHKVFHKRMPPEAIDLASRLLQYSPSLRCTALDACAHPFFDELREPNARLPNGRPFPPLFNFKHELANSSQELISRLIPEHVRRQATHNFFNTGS

GST-OsBZR1 (rice) = biological target: T2, GST-OsBZR1 (rice) (UniProt Q7XI96); experiment: pull-down
T2 sequence: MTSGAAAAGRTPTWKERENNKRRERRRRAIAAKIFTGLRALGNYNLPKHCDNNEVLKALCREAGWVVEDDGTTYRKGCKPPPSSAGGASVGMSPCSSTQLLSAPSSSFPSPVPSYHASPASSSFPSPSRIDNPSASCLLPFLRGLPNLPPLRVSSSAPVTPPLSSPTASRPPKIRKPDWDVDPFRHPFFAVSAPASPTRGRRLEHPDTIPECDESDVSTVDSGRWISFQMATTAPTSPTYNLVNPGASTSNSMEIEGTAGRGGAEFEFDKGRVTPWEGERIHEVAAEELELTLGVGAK

GSK2 (rice) = biological target: T3, GSK2 (rice) (UniProt Q60EZ2); experiment: two-hybrid
T3 sequence: T1 sequence

OsBZR1 (rice) = biological target: T4, OsBZR1 (rice) (UniProt Q7XI96); experiment: two-hybrid
T4 sequence: T2 sequence

[1] = biological target: TAF2-C (C-terminus of transcription initiation factor TFIID subunit 2) (rice); experiment: two-hybrid
[2] = biological target: POW1 (put on weight 1) (rice); experiment: two-hybrid
[3] = biological target: POW1 fused to a half of Venus YFP (BiFC) (rice); experiment: split reporter

**Q.** GL7-YFP (rice) was tested. Which binding (GST-GSK2 (rice)) did it give?
**A.** The binding was “binds”.

**Q.** And the binding (GST-OsBZR1 (rice))?
**A.** Its binding is “no binding”.

**Q.** What does the source list for GL7 (rice)?
**A.** binding (GSK2 (rice)): binds; binding (OsBZR1 (rice)): no binding

B1: OsBZR1 (protein, UniProt Q7XI96 1-298)
chain: T2 sequence
**Q.** Which binding [1] does the source give for B1 here?
**A.** Its binding is “no binding”.

**Q.** And the binding [2]?
**A.** The binding was “no binding”.

B2: OsBZR1 fused to a half of Venus YFP (BiFC) (protein, UniProt Q7XI96 1-298)
chain: T2 sequence
**Q.** Which binding [3] does the source give for B2 here?
**A.** The binding was “no binding”.
